PubChem BioAssay AID1508588 – Peter MacCallum Cancer Centre – 2020
Test: 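Which gene losses make BRAF-mutant melanoma cells more responsive to vemurafenib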 (primary screen). Cells: human WM266.4 melanoma cells (BRAF V600 mutant). Reagents: siRNA pool against human genes, 40 nM. Timing: 96 h from transfection to read-out. Challenge: vemurafenib 300 nM (about IC25), added 48 h after transfection, for 48 h; comparison arm got DMSO vehicle only. Measurement: 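Ratios to non-targeting siRNA for cell gain, counted as DAPI nuclei after minus before drug and averaged over two replicates, and for absorbance-read medium lactate per cell; both binned into fold-change classes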. Reading the numbers: cell gain with vemurafenib: higher = more cell gain than with non-targeting siRNA; lactate per cell with vemurafenib: higher = more lactate made per cell. Call rule: 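a knock-down counts as enhancing when its fold-change classes with vehicle and with vemurafenib, taken together, show a stronger drug effect on cell gain or lactate per cell; exact class pairs not stated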. Calls: active = enhances vemurafenib effect; inactive = no enhancement seen.
In all, the deposit lists about 18,000 reagents; shown is an unselected part. Over the whole deposit, 790 (4.4%) got an active call. 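Calls rest on a combination of fold-change classes in drug and vehicle arms, not all shown here.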 No sequences are given here.

gene	cell gain with vemurafenib	lactate per cell with vemurafenib	Call
COA3	0.4	1.9	inactive
COL4A6	0.78	0.68	inactive
LRTM2	0.93	1.04	inactive
CAPN9	1.02	0.6	inactive
CCL23	0.71	0.75	inactive
MAF	0.41	0.46	inactive
ATG4B	0.55	0.46	inactive
PLCB3	0.27	0.66	inactive
SLC6A12	0.67	0.55	inactive
GATAD2A	1.07	0.52	inactive
C1GALT1	0.46	1.16	inactive
COL5A1	0.27	0.33	inactive
MRGPRD	0.82	0.67	inactive
UBQLN2	0.55	0.84	inactive
XYLB	0.57	1	inactive
FBXO28	0.93	0.68	inactive
SLC20A2	1.17	0.48	inactive
RAP1B	0.58	0.74	inactive
SAAL1	0.85	0.71	inactive
MAMDC2	0.93	0.74	inactive
NTN3	0.07	2	inactive
ANKRD34B	0.97	0.28	inactive
TRPV3	0.29	0.79	inactive
PPP1R9B	0.31	0.72	inactive
RXFP1	0.57	0.22	inactive
COX7A2L	0.68	0.56	inactive
ZNF358	0.15	1.95	inactive
ZNF740	0.87	0.64	inactive
SIVA1	0.06	2.91	inactive
GALNT13	0.78	0.94	inactive
SELENOP	0.85	0.67	inactive
CBX7	1.61	0.51	inactive
APOBEC3D	0.32	0.56	inactive
HLA-DOB	0.81	0.7	inactive
OR51L1	0.39	1	inactive
SDK1	1.56	0.88	inactive
SPIN4	1.15	0.77	inactive

Continued (4 carried over from the part before).
gene	cell gain with vemurafenib	lactate per cell with vemurafenib	Call
HLA-DOB	0.81	0.7	inactive
OR51L1	0.39	1	inactive
SDK1	1.56	0.88	inactive
SPIN4	1.15	0.77	inactive
FOXL2	1.06	0.82	inactive
DCAF17	0.5	1.05	inactive
PHF14	0.17	1.32	inactive
MAPK9	0.88	0.57	inactive
MRPS14	0.92	1.04	inactive
CAMTA2	0.39	1.05	inactive
TLN1	0.78	1.37	inactive
ZFYVE28	0.86	1.06	inactive
JARID2	0.57	0.37	inactive
OSR1	1.21	0.78	inactive
ADAT1	0.38	0.78	inactive
COPG2	0.43	1.73	inactive
GRK6	0.31	1.29	inactive
IKZF2	0.84	0.86	inactive
ATP2A3	0.55	0.84	inactive
PFKP	-0.07	2.65	inactive
NPIPB15	0.16	2.12	inactive
MMP27	0.66	1.02	inactive
LTF	0.03	0.7	active
PACRGL	0.6	0.7	inactive
CENPM	0.67	0.44	inactive
MAP3K3	0.4	0.97	inactive
PDIA2	1.6	0.84	inactive
MMP1	0.07	1.52	inactive
MTMR8	0.33	0.94	inactive
WWC1	0.52	0.88	inactive
CIAPIN1	0.48	1.26	inactive
GFPT1	0.92	0.55	inactive
ANKRD34A	1.07	0.46	inactive
DYNC1LI1	0.72	1.18	inactive
C4orf36	0.29	1.36	inactive
MAPK14	1.27	0.71	inactive
PHF11	0.98	0.78	inactive
CACNA2D3	0.82	0.33	inactive
TLR1	0.69	2.18	inactive
C9orf85	0.3	1.52	inactive
KIAA1328	0.97	0.88	inactive
RNASET2	0.72	0.98	inactive
TOP3B	0.78	0.8	inactive
GLRX3	0.63	0.69	inactive
KLRB1	0.92	0.55	inactive
STAM2	0.62	0.98	inactive
AKAP12	0.46	0.2	active
CPA5	0.79	0.91	inactive
CDK2AP1	0.62	0.8	inactive
PKD1L3	0.08	1.13	inactive
DRAXIN	0.48	1.21	inactive
